# Among all 300,000 compounds or so, about 5,400 (1.8%) were called active. The inconclusive results got no clear call from the source; some entries with a clear call stand among them for comparison. The call rests on the fitted dose curve; tested in HEK293 cells. A potency beside an inconclusive call is a rough fit, not a confirmed value.
# Assay: qHTS for inhibitors of binding or entry into cells for Marburg Virus
# Settings: Marburg virus pseudotyped entry inhibition, cell reporter; activity change, negative = inhibition: at 37.8 µM (top of the series) unless noted
# On the % scale 0 is the no-effect control and ±100 the full control effect; potency means the concentration at half of the fitted maximal effect.
Structure (SMILES),"activity change, negative = inhibition",Potency
O=C(CSc1nnc(Cn2c(=O)sc3ccccc32)n1-c1ccccc1)N1CCOCC1,inactive: 16%,
CCN(CC)c1ccc(NC(=O)OC)cc1,,"inconclusive: 5.62 µM [inhibitor, single point]"
COCCNC(=S)N/N=C(\C)c1cc2ccccc2o1,,"inconclusive: 0.891 µM [activator, single point]"
CCN(c1ccccc1)S(=O)(=O)c1cc(Br)cc2c1N(C(=O)C1CC1)CC2,inactive: 4.37% [at 46.1 µM],
Cc1c(N)c(C)c([N+](=O)[O-])c(C)c1[N+](=O)[O-],inactive: -0.739%,
Cn1cccc1C(=O)c1ccc(Cl)cc1Cl,,"inconclusive: 14.6 µM [activator, partial curve, poor fit]"
COc1ccc(-c2oc(=O)n(C)c2-c2ccc(OC)cc2)cc1,,"inconclusive: 3.16 µM [inhibitor, full curve]"
Cc1nc(Nc2ccncc2)c2oc3ccccc3c2n1,,"inconclusive: 20.6 µM [inhibitor, partial curve, poor fit]"
COc1ccc(C(CNC(=O)c2c(C)nn(Cc3ccc(C)cc3)c2Cl)N2CCOCC2)cc1 (centres undefined),,"inconclusive: 35.5 µM [inhibitor, single point]"
Cc1ccc(S(=O)(=O)N2CCC(C(=O)Nc3ccc(S(=O)(=O)N4CCCC4)cc3)CC2)cc1,,"inconclusive: 35.5 µM [inhibitor, single point]"
Cc1occc1C(=O)Nc1ccc2c(c1)OCO2,inactive: -0.863%,
CCOC(=O)C1(Cc2cccc(OC)c2)CCN(Cc2ccc(C)s2)CC1,,active: 5.01 µM
Cc1c(CNC2CCCC2)c(C(=O)O)c(C)n1Cc1ccccc1,,"inconclusive: 0.447 µM [activator, partial curve, poor fit]"
O=C(NCCOc1ccccc1)c1cccc(S(=O)(=O)NCc2ccccc2)c1,,"inconclusive: 12.6 µM [inhibitor, partial curve]"
COC(=O)c1c(-c2cccs2)csc1NC(=O)c1cccc(Cl)c1,,"inconclusive: 31.6 µM [activator, single point]"
COC(=O)c1c(-c2cccs2)csc1NC(=O)c1ccc(Br)cc1,,"inconclusive: 3.55 µM [activator, single point]"
CCOc1ccc(-c2cc(CCCC(=O)NCCc3ccc(Cl)cc3)no2)cc1,,"inconclusive: 6.31 µM [inhibitor, full curve, poor fit]"
COc1cccc2cc(C(C)N(CCCN3CCOCC3)C(=O)Nc3ccc(Cl)cc3)oc12 (centres undefined),,"inconclusive: 35.5 µM [inhibitor, single point]"
Cc1nc2ccccn2c1-c1csc(Nc2cccc(O)c2)n1,,"inconclusive: 25.1 µM [inhibitor, single point]"

# A portion from further up:
Structure (SMILES),"activity change, negative = inhibition",Potency
Cc1ccc(S(=O)(=O)N2CCC(C(=O)Nc3ccc(S(=O)(=O)N4CCCC4)cc3)CC2)cc1,,"inconclusive: 35.5 µM [inhibitor, single point]"
Cc1occc1C(=O)Nc1ccc2c(c1)OCO2,inactive: -0.863%,
CCOC(=O)C1(Cc2cccc(OC)c2)CCN(Cc2ccc(C)s2)CC1,,active: 5.01 µM
Cc1c(CNC2CCCC2)c(C(=O)O)c(C)n1Cc1ccccc1,,"inconclusive: 0.447 µM [activator, partial curve, poor fit]"
O=C(NCCOc1ccccc1)c1cccc(S(=O)(=O)NCc2ccccc2)c1,,"inconclusive: 12.6 µM [inhibitor, partial curve]"
